# Test results from article PMC10535268, “Design, Synthesis, and Evaluation of Novel Indole Hybrid Chalcones and Their Antiproliferative and Antioxidant Activity” (Molecules, 2023).
# Test system: Jurkat
# Test: MTT antiproliferative assay, Jurkat
# Assay type: cell-based, human
smiles,measurement,value
"N.N.[Cl][Pt][Cl] [Cisplatin, reference compound]",selectivity index [IC50(MCF-10A)/IC50(Jurkat cells)],4
"CCOc1[nH]c2ccccc2c1/C=C/C(=O)c1ccccc1F [11e, (2E)-3-(2′-ethoxy-1′H-indol-3′-yl)-1-(2″-fluorophenyl)prop-2-en-1-one]",selectivity index [IC50(MCF-10A)/IC50(Jurkat cells)],> 11
"COn1cc(/C=C/C(=O)c2ccccc2F)c2ccccc21 [11c, (2E)-1-(2″-Fluorophenyl)-3-(1′-methoxy-1′H-indol-3′-yl)prop-2-en-1-one]",selectivity index [IC50(MCF-10A)/IC50(Jurkat cells)],> 11
"O=C(/C=C/c1c[nH]c2ccccc12)c1ccccc1F [11a, (2E)-1-(2″-Fluorophenyl)-3-(1′H-indol-3′-yl)prop-2-en-1-one]",selectivity index [IC50(MCF-10A)/IC50(Jurkat cells)],> 11
